Reference: article PMC1635724
Results are given in words; binding and its absence hold for the method and conditions named. Binding calls can cover weak binding; strength is not graded here. Sequences can lack the tags named with a protein.

Molecular target: T1, 6His-PfJ (4.1R binding region of Plasmodium falciparum erythrocyte binding antigen-181, aa 945-1097) (P. falciparum) (UniProt Q8I2B4)
T1 sequence: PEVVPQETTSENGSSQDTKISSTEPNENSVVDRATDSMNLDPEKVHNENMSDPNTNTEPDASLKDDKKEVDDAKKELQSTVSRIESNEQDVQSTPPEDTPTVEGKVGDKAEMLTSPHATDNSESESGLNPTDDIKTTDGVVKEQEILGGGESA
Experiment: far-Western, overlay or dot blot; ~5 μg of GST, GST-4.1R domains and 6His-PfJ spotted on nitrocellulose, blocked with 5% BSA in TBS pH 7.5, overlaid with 0.5-1 μg purified 4.1R or GST-4.1R domain for 2 hrs, fixed with 0.5% formaldehyde, detected with rabbit anti-4.1R antibody; both purified

For “native human erythrocyte membrane protein 4.1 (4.1R)”, the binding was “binds”.
